In patent US20070066627A1, “Hydrazone derivatives for combatting harmful insects and arachnids” (priority 2004, published 2007):
Some entries share one result that the patent states for a list of compounds.

Experiments:
Assay type in all cases: in vivo
[1] = tested on: Cotton Aphid (aphis gossypii); assay: Cotton aphid test on cotton cotyledons; details: 300 ppm; cotyledons dipped; after 5 days
Source text: 2.2 Cotton Aphid (aphis gossypii)
(§1) The active compounds were formulated in 50:50 acetone:water and 100 ppm Kinetic® surfactant.
Cotton plants at the cotyledon stage (one plant per pot) were infested by placing a heavily infested leaf from the main colony on top of each cotyledon. The aphids were allowed to transfer to the host plant overnight, and the leaf used to transfer the aphids was removed. The cotyledons were dipped in the test solution and allowed to dry. After 5 days, mortality counts were made.

[2] = tested on: 2-Spotted Spider Mite (tetranychus urticae, OP-Resistant Strain); assay: 2-spotted spider mite test on Sieva lima bean plants; details: 300 ppm; plants dipped; after 5 days
Description: 2.6 2-Spotted Spider Mite (tetranychus urticae, OP-Resistant Strain)
Sieva lima bean plants with primary leaves expanded to 7-12 cm were infested by placing on each a small piece from an infested leaf (with about 100 mites) taken from the main colony. This was done at about 2 hours before treatment to allow the mites to move over to the test plant to lay eggs. The piece of leaf used to transfer the mites was removed. The newly-infested plants were dipped in the test solution and allowed to dry. The test plants were kept under fluorescent light (24 hour photoperiod) at about 25° C. and 20-40% relative humidity. After 5 days, one leaf was removed and mortality counts were made.

[3] = tested on: Orchid Thrips (dichromothrips corbetti); assay: Orchid thrips floral-immersion test; details: 500 ppm, adults, after 4 days
Description: 2.7 Orchid Thrips (dichromothrips corbetti)
Dichromothrips corbetti adults used for bioassay were obtained from a colony maintained continuously under laboratory conditions. For testing purposes, the test compound was diluted to a concentration of 500 ppm (wt compound:vol diluent) in a 1:1 mixture of acetone:water, plus 0.01% Kinetic® surfactant.
Thrips potency of each compound was evaluated by using a floral-immersion technique. Plastic petri dishes were used as test arenas. All petals of individual, intact orchid flowers were dipped into treatment solution for approximately 3 seconds and allowed to dry for 2 hours. Treated flowers were placed into individual petri dishes along with 10-15 adult thrips. The petri dishes were then covered with lids. All test arenas were held under continuous light and a temperature of about 28° C. for duration of the assay. After 4 days, the numbers of live thrips were counted on each flower, and along inner walls of each petri dish. The level of thrips mortality was extrapolated from pretreatment thrips numbers.

[4] = tested on: Green Peach Aphid (Myzus persicae); assay: Green peach aphid test on pepper plants; details: 300 ppm; leaves dipped; after 5 days
Source text: 2.3 Green Peach Aphid (Myzus persicae)
as §1
Pepper plants in the 2nd leaf-pair stage (variety ‘California Wonder’) were infested with approximately 40 laboratory-reared aphids by placing infested leaf sections on top of the test plants. The leaf sections were removed after 24 hr. The leaves of the intact plants were dipped into gradient solutions of the test compound and allowed to dry.
Test plants were maintained under fluorescent light (24 hour photoperiod) at about 25° C. and 20-40% relative humidity. Aphid mortality on the treated plants, relative to mortality on check plants, was determined after 5 days.

## O=C(NN=Cc1cc2ccccc2o1)c1ccco1 [Compound 429, furan-2-carboxylic acid[(benzofuran-2-yl)methylene]hydrazide]
[1]
  mortality in comparison with untreated controls: over 75%
[2]
  mortality compared to untreated controls: over 75%

## CC(C=NNC(=O)c1scc(C)c1Cl)=Cc1cccc(F)c1 [Compound 105]
[3]
  mortality compared to untreated controls: over 95%

## Cc1ccc(C(=O)NN=Cc2cc3ccccc3o2)cc1F [Compound 452]
[2]
  mortality compared to untreated controls: over 75%

## CCC(C=NNC(=O)c1cccc(Br)n1)=Cc1ccc(F)cc1 [Compound 396]
[4]
  mortality in comparison with untreated controls: over 75%
